US10369187B2 (Vanderbilt University, priority 2017, dated 2019)
Plain letter strings leave the end groups untold.

Assay: general procedure: peptide synthesis; NovaSyn TGR R resin
Details: whole synthesis, analytical reversed-phase HPLC and MALDI-TOF mass spectrometry, scale 13.5 μmol

## MGEKPGTRVFKKSSPNCKLTVYLGK (bovine)
  purity (crude or final not stated): ≥95%
